This passage reports binding results from publication PMC6881171, “A conserved ATP- and Scc2/4-dependent activity for cohesin in tethering DNA molecules” (Science Advances, 2019).

One test deals with T1, 10xHis-SA1 (human) (UniProt Q8WVM7).
T1 sequence: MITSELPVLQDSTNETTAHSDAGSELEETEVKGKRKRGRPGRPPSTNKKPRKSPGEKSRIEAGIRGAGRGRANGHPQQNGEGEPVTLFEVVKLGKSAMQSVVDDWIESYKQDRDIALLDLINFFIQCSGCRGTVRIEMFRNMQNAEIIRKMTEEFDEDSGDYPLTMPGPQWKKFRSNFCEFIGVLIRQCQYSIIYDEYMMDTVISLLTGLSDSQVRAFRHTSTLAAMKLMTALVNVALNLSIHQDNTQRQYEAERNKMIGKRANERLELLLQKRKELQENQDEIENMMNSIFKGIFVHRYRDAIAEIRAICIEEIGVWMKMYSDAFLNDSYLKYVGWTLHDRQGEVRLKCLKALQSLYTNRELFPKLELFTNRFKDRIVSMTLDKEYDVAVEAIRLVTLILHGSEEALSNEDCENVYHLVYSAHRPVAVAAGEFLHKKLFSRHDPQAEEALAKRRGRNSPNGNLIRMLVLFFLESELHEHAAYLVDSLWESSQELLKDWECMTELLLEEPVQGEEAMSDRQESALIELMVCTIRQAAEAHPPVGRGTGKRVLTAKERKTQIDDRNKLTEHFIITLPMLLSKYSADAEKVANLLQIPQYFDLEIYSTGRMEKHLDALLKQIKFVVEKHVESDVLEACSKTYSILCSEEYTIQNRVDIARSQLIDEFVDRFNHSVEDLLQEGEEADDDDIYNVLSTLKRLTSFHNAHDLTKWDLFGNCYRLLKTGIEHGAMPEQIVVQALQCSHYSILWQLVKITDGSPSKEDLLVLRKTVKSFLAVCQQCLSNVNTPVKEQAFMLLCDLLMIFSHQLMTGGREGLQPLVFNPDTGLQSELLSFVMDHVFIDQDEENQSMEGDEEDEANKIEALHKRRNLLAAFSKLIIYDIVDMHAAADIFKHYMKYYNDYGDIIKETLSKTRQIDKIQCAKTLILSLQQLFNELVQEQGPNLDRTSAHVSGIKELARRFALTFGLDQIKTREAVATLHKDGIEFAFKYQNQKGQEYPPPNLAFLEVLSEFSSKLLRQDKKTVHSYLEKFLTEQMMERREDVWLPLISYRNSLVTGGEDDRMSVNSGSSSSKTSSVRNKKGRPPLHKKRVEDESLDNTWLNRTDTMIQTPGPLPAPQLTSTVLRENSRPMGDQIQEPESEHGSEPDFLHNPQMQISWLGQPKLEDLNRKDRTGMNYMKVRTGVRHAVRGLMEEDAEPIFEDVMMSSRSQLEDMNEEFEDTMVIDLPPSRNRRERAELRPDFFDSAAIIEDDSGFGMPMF
The test is described as follows: co-purification (affinity and ion exchange chromatography); human subunits coexpressed in High Five insect cells; clarified lysate on HisTrap (10xHis on SA1), wash with 500 mM NaCl and 20 mM imidazole, eluted with 150 mM imidazole; tandem anion and cation exchange, eluted with 1 M NaCl; purity confirmed by gel electrophoresis and mass spectrometry.

For test [1], the target named is T2, Scc2 with 3xmyc and 3xStrepII tags (S. cerevisiae) (UniProt Q04002).
T2 sequence: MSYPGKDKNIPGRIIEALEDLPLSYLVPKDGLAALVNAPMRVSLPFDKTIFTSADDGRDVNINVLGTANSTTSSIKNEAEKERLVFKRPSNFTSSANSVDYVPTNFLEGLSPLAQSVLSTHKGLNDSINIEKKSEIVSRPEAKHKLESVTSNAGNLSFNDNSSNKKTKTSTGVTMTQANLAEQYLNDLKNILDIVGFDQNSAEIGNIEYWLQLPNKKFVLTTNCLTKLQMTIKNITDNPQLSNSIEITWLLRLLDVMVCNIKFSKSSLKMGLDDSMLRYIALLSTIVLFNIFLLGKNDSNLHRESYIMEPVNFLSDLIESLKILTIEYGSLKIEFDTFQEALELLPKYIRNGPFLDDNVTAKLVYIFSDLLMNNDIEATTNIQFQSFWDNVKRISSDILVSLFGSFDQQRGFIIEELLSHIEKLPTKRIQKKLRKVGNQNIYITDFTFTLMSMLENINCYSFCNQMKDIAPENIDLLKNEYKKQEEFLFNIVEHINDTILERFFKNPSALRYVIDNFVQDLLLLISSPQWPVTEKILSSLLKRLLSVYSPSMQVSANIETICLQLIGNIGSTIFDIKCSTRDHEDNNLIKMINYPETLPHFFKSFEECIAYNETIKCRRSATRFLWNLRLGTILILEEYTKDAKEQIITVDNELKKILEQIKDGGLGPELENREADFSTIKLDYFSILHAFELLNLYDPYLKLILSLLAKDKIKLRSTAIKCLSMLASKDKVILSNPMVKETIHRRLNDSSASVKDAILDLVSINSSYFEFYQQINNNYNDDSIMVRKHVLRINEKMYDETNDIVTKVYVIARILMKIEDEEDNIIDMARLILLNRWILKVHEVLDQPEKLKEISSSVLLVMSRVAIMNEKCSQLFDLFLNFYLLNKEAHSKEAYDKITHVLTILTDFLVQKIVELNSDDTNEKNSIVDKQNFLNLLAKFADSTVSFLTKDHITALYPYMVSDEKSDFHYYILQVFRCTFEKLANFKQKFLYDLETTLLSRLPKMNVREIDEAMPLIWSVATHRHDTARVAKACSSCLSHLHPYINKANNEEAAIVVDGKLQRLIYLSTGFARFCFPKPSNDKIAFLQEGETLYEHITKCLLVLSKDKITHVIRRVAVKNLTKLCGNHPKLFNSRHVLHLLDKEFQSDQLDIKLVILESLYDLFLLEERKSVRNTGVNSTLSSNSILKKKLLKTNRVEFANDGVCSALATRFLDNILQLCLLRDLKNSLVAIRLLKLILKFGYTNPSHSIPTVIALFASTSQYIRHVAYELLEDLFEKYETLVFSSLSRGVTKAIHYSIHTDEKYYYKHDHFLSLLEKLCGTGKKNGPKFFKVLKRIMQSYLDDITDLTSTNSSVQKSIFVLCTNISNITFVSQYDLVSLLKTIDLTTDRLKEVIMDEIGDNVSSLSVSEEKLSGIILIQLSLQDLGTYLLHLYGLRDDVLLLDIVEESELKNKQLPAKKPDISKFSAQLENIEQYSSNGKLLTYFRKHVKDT
The test is described as follows: co-purification (affinity, heparin and gel filtration chromatography); subunits co-overexpressed in S. cerevisiae; clarified lysate on StrepTrap-HP (3xStrepII on Smc1 or Scc2), buffer A 25 mM Hepes pH 7.5, 200 mM NaCl, eluted with 5 mM desthiobiotin; HiTrap Heparin HP gradient 150 mM to 1 M NaCl; Superose 6 Increase in 300 mM NaCl; analysed by SDS-PAGE with Coomassie, Western blot and mass spectrometry. Background: SEC sorts molecules by how far they enter the pores of the column.

No constants are given. Whether binding was seen depends on the method and setting. Some results given as binding are weak or reduced against the parent protein; the word gives no strength. Tags and fused reporters may be left off the sequences shown.

B1: SMC1A (protein, UniProt Q14683 1-1233)
chain: MGFLKLIEIENFKSYKGRQIIGPFQRFTAIIGPNGSGKSNLMDAISFVLGEKTSNLRVKTLRDLIHGAPVGKPAANRAFVSMVYSEEGAEDRTFARVIVGGSSEYKINNKVVQLHEYSEELEKLGILIKARNFLVFQGAVESIAMKNPKERTALFEEISRSGELAQEYDKRKKEMVKAEEDTQFNYHRKKNIAAERKEAKQEKEEADRYQRLKDEVVRAQVQLQLFKLYHNEVEIEKLNKELASKNKEIEKDKKRMDKVEDELKEKKKELGKMMREQQQIEKEIKEKDSELNQKRPQYIKAKENTSHKIKKLEAAKKSLQNAQKHYKKRKGDMDELEKEMLSVEKARQEFEERMEEESQSQGRDLTLEENQVKKYHRLKEEASKRAATLAQELEKFNRDQKADQDRLDLEERKKVETEAKIKQKLREIEENQKRIEKLEEYITTSKQSLEEQKKLEGELTEEVEMAKRRIDEINKELNQVMEQLGDARIDRQESSRQQRKAEIMESIKRLYPGSVYGRLIDLCQPTQKKYQIAVTKVLGKNMDAIIVDSEKTGRDCIQYIKEQRGEPETFLPLDYLEVKPTDEKLRELKGAKLVIDVIRYEPPHIKKALQYACGNALVCDNVEDARRIAFGGHQRHKTVALDGTLFQKSGVISGGASDLKAKARRWDEKAVDKLKEKKERLTEELKEQMKAKRKEAELRQVQSQAHGLQMRLKYSQSDLEQTKTRHLALNLQEKSKLESELANFGPRINDIKRIIQSREREMKDLKEKMNQVEDEVFEEFCREIGVRNIREFEEEKVKRQNEIAKKRLEFENQKTRLGIQLDFEKNQLKEDQDKVHMWEQTVKKDENEIEKLKKEEQRHMKIIDETMAQLQDLKNQHLAKKSEVNDKNHEMEEIRKKLGGANKEMTHLQKEVTAIETKLEQKRSDRHNLLQACKMQDIKLPLSKGTMDDISQEEGSSQGEDSVSGSQRISSIYAREALIEIDYGDLCEDLKDAQAEEEIKQEMNTLQQKLNEQQSVLQRIAAPNMKAMEKLESVRDKFQETSDEFEAARKRAKKAKQAFEQIKKERFDRFNACFESVATNIDEIYKALSRNSSAQAFLGPENPEEPYLDGINYNCVAPGKRFRPMDNLSGGEKTVAALALLFAIHSYKPAPFFVLDEIDAALDNTNIGKVANYIKEQSTCNFQAIVISLKEEFYTKAESLIGVYPEQGDCVISKVLTFDLTKYPDANPNPNEQ
Regarding B1, the binding entry with 10xHis-SA1 (human) is on record as “binds”.

B2: Scc4 (protein, UniProt P40090 1-624)
chain: MENLGDKLSISQVYHLAQEYRDHAYSIANKIGSEEGLKQYYGLMNMSIQMFQLLKTKCTLSVLEDSKVTFEMVELLIQETYNFDLAELYISSLKERLQTHQSDTDLVEEIMRCEFLLLHDLPLMRDSKFHYKIALRNCNELVQYMVNLQDELYQNWASVFQYVGVMLCIKLKQHRRVKTSFHGLLSQCREKSQWKWFLNLCYVNYLLNERFPIPEDALQELRSTELHTVGPELYAWKLALEMVIQLCKDGNITDHLNEFKNFFDTNKQSLVTNEGKGCVIKIMPRIALKVELPMIFHYKELKNILLLLQSVSYIVNCYDEKGNFSRKFLPKVYSTTQKLIKNIAAGGVSMNELDSRIQTYKSILEFCEFYKVWEQTLLKGAVVTTESPKLGPSPGYVRLLQAMKVQFEGGGAVEEYTRLAQSGGTSSEVKMISLLNCYTVQAARVSRCSGDKQGELVEQCNKVWLQVEKLLQETDLQFNPIWECTVTILWLFSHFEPFSWNPLPCSDKQRAEYVSKLREFYSSNKFVAGEAVADNRFKLKKALLLQILVNYLGGRMLEHDLGEIYAISAKCFDMCRQQGGMRKVQYVIGIWHLMNCTVAMRGKDVALTNAKLEALVKQITSVKQ
As to B2, the binding entry in test [1] is “binds”.
